# Reference: the supplement of paper PMC4749390
# Structures can show the parent of a compound that is named as a salt. This is one part of the list. Single values are uncertain here, since repeats match poorly.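 JEG3 cells stably express tetracycline-inducible wild-type human LRH-1, a highly sumoylated nuclear receptor. SUMO-sensitive transcripts APOC3 and MUC1, increased by SUMO-deficient LRH-1 or UBC9 knockdown, were quantified by RT-qPCR relative to TBP and DMSO controls. Primary hits had robust Z-scores above +2 or below -2, before toxicity and TBP filtering.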
# Test system: JEG3 expressing hLRH-1
# Assay: APOC3 transcript change (ddCt vs TBP and DMSO), Z-score over library; higher = higher APOC3 expression
# Conditions: 10 µM; time (hr): 24
row,SMILES,APOC3 transcript change (Z-score)
1,Nc1ccc(S(N)(=O)=O)cc1 [sulfanilamide],-0.3
2,CN1CCCC(n2nc(Cc3ccc(Cl)cc3)c3ccccc3c2=O)CC1 (stereo not given) [azelastine hydrochloride],0.414
3,Cc1cc2nc3c(=O)[nH]c(=O)nc-3n(C[C@@H](O)[C@@H](O)[C@@H](O)COP(=O)(O)O)c2cc1C [riboflavin 5-phosphate sodium],0.538
4,COC(=O)Nc1nc2cc(S(=O)c3ccccc3)ccc2[nH]1 (stereo not given) [oxfendazole],-0.695
5,CN1CCOC(c2ccccc2)c2ccccc2C1 (stereo not given) [nefopam],0.183
6,NC(=O)CCCCC1CCSS1 (stereo not given) [lipoamide],0.334
7,CCC1(C)OC(=O)N(C)C1=O (stereo not given) [paramethadione],0.902
8,O=C(O)c1cccnc1 [niacin],0.503
9,CCC(C)(C)C(=O)O[C@H]1C[C@@H](C)C=C2C=C[C@H](C)[C@H](CC[C@@H]3C[C@@H](O)CC(=O)O3)[C@H]21 [simvastatin],0.877
10,CC#CCn1c(N2CCC[C@@H](N)C2)nc2c1c(=O)n(Cc1nc(C)c3ccccc3n1)c(=O)n2C [linagliptin],-1.05
11,Nc1ncnc2c1ncn2[C@@H]1O[C@H](CO)[C@@H](O)[C@H]1O [adenosine],-0.878
12,CN[C@@H]1[C@H](O)[C@H](NC)[C@H]2O[C@@]3(O)C(=O)C[C@@H](C)O[C@H]3O[C@@H]2[C@H]1O [spectinomycin hydrochloride],-0.00199
13,c1ccc2c(CC3=NCCN3)cccc2c1 [naphazoline hydrochloride],0.327
14,Clc1ccc2c(c1)C(N1CCNCC1)=Nc1ccccc1O2 [Amoxapine],0.0327
15,CC(=O)OCC(=O)[C@@]12OC(C)(C)O[C@@H]1C[C@H]1[C@@H]3C[C@H](F)C4=CC(=O)C=C[C@]4(C)[C@@]3(F)[C@@H](O)C[C@@]12C [fluocinonide],1.14
16,CCN(CC)CC(=O)Nc1c(C)cccc1C [Lidocaine hydrochloride],-1.26
17,CCNC(=O)/C=C/c1cccc(Br)c1 [cinromide],0.641
18,CC1CC(OC(=O)C(O)c2ccccc2)CC(C)(C)C1 (stereo not given) [cyclandelate],-0.281
19,Nc1nc(O)c2nc(CNc3ccc(C(=O)N[C@@H](CCC(=O)O)C(=O)O)cc3)cnc2n1 [folic acid],-0.181
20,COc1ccc(-c2cc(C(F)F)nn2-c2ccc(S(N)(=O)=O)cc2)cc1F [deracoxib],0.188
21,CC(C)NCC(O)c1ccc(NS(C)(=O)=O)cc1 (stereo not given) [sotalol hydrochloride],-0.0296
22,CN(C)CCC(c1ccc(Cl)cc1)c1ccccn1 (stereo not given) [chlorpheniramine maleate],-0.17
23,O=C1NS(=O)(=O)c2ccccc21 [saccharin],0.306
24,Nc1ccc(S(=O)(=O)c2ccc(N)cc2)cc1 [dapsone],-1.7
25,Cc1nccnc1N1CCCCC1 [modaline sulfate],-0.298

row,SMILES,APOC3 transcript change (Z-score)
1,CN(C)CCN(Cc1cccs1)c1ccccn1 [methapyrilene hydrochloride],0.878
2,CCC[C@H](N[C@@H](C)C(=O)N1[C@H](C(=O)O)C[C@@H]2CCCC[C@@H]21)C(=O)OCC [perindopril erbumine],0.597
3,CC(=O)NS(=O)(=O)c1ccc(N)cc1 [sulfacetamide],-0.199
4,O=S(=O)(OC[C@H]1O[C@@H](O[C@]2(COS(=O)(=O)[O][Al]([OH])[OH])O[C@H](OS(=O)(=O)[O][Al]([OH])[OH])[C@@H](OS(=O)(=O)[O][Al]([OH])[OH])[C@@H]2OS(=O)(=O)[O][Al]([OH])[OH])[C@H](OS(=O)(=O)[O][Al]([OH])[OH])[C@@H](OS(=O)(=O)[O][Al]([OH])[OH])[C@@H]1OS(=O)(=O)[O][Al]([OH])[OH])[O][Al]([OH])[OH] [sucralfate],0.402
5,CN1CCN(C(c2ccccc2)c2ccc(Cl)cc2)CC1 (stereo not given) [chlorcyclizine hydrochloride],-1.19
6,CCN(CC)CCNC(C(=O)OCCC(C)C)c1ccccc1 (stereo not given) [camylofine dihydrochloride],0.0894
7,CC(C)NCC(O)COc1ccc(CC(N)=O)cc1 (racemic) [(±)-Atenolol],1.5
8,OC(CCN1CCCC1)(c1ccccc1)C1CCCCC1 (stereo not given) [procyclidine hydrochloride],0.459
9,Nc1nc(O)c2c(CCc3ccc(C(=O)N[C@@H](CCC(=O)O)C(=O)O)cc3)c[nH]c2n1 [pemetrexed],1.01
10,O=C(/C=C/C=C/c1ccc2c(c1)OCO2)N1CCCCC1 [piperine],-0.386
11,C[N+]1(C)C2CC[C@H]1C[C@@H](OC(=O)C(O)c1ccccc1)C2 (stereo not given in full) [homatropine methylbromide],-0.277
12,O=C1C(CCS(=O)c2ccccc2)C(=O)N(c2ccccc2)N1c1ccccc1 (stereo not given) [sulfinpyrazone],-1.24
13,C[N+](C)(C)CC(=O)O [betaine hydrochloride],0.513
14,CC1(C)NC(=O)N(c2ccc([N+](=O)[O-])c(C(F)(F)F)c2)C1=O [nilutamide],-0.876
15,Fc1ccc(C(c2ccc(F)cc2)N2CCN(C/C=C/c3ccccc3)CC2)cc1 [Flunarizine dihydrochloride],-0.143
16,CC(=O)OC(C)C[N+](C)(C)C (stereo not given) [methacholine chloride],0.248
17,C[C@]12CC[C@@H]3c4ccc(OC(=O)c5ccccc5)cc4CC[C@H]3[C@@H]1CC[C@@H]2O [estradiol benzoate],0.22
18,CS(=O)(=O)c1ccc(C2=C(c3ccccc3)C(=O)OC2)cc1 [rofecoxib],0.00484
19,CC(=O)NCCCS(=O)(=O)[O-]->[Ca+2]<-[O-]S(=O)(=O)CCCNC(C)=O [acamprosate calcium],0.316
20,O=C(NCc1ccccc1)OCCO [buramate],-0.0503
21,N=C(N)/N=C(\N)NCCc1ccccc1 [phenformin hydrochloride],-0.885
22,COC(=O)/C=C/C(=O)OC [dimethyl fumarate],0.545
23,OC(CNCC(O)C1CCc2cc(F)ccc2O1)C1CCc2cc(F)ccc2O1 (stereo not given) [nebivolol hydrochloride],0.335
24,Cc1cc(C(C)(C)CC(C)(C)C)cc(Cc2cc(C(C)(C)CC(C)(C)C)cc(Cc3cc(C(C)(C)CC(C)(C)C)ccc3OCCO)c2OCCO)c1OCCO [tyloxapol],0.14
25,N[C@@H](Cc1cc(I)c(Oc2ccc(O)c(I)c2)c(I)c1)C(=O)O [liothyronine sodium],-1.32

row,SMILES,APOC3 transcript change (Z-score)
1,CCN(CC)C(=O)C1(c2ccccc2)CC1CN (stereo not given) [milnacipran hydrochloride],0.544
2,S=P(N1CC1)(N1CC1)N1CC1 [thiotepa],-0.0906
3,CN(C)CCCN1c2ccccc2Sc2ccc(C(F)(F)F)cc21 [triflupromazine hydrochloride],0.991
4,CCC(C)C(N)C1=NC(C(=O)NC(CC(C)C)C(=O)NC(CCC(=O)O)C(=O)NC(C(=O)NCCCCC2NC(=O)C(CC(N)=O)NC(=O)C(CC(=O)O)NC(=O)C(Cc3c[nH]cn3)NC(=O)C(Cc3ccccc3)NC(=O)C(C(C)CC)NC(=O)C(CCCN)NC2=O)C(C)CC)CS1 (stereo not given) [bacitracin],0.496
5,CC(=O)Oc1ccc(C(c2ccc(OC(C)=O)cc2)c2ccccn2)cc1 [bisacodyl],0.971
6,O=C(O)c1ccccc1Nc1cccc(C(F)(F)F)c1 [flufenamic acid],-0.0411
7,Nc1nc2ccc(OC(F)(F)F)cc2s1 [Riluzole],-0.481
8,CN(C)N=Nc1[nH]cnc1C(N)=O [dacarbazine],0.582
9,C=Cc1c(C)c2[n]3c1C=C1C(C)=C(CC)C4=[N+]1[Cu]31[n]3c(c(C)c(C(=O)O)c3=C(CC(=O)O)C3=[N+]1C(=C2)C(C)C3CCC(=O)O)=C4 (stereo not given) [chlorophyllide cu complex na salt],0.131
10,Nc1ccc(S(=O)(=O)Nc2cnc3ccccc3n2)cc1 [sulfaquinoxaline sodium],-0.694
11,OC[C@H]1O[C@H](O[C@]2(CCl)O[C@H](CCl)[C@@H](O)[C@@H]2O)[C@H](O)[C@@H](O)[C@H]1Cl [sucralose],-0.168
12,CN(C)CC[C@@H](c1ccc(Cl)cc1)c1ccccn1 [dexchlorpheniramine maleate],-0.1
13,C[C@H]1OC(n2cc(F)c(=O)[nH]c2=O)C(O)[C@@H]1O (stereo not given in full) [5-fluoro-5'-deoxyuridine],-0.103
14,Cc1ccc(-c2cc(C(F)(F)F)nn2-c2ccc(S(N)(=O)=O)cc2)cc1 [celecoxib],-0.341
15,Clc1ccc(CCC(Cn2ccnc2)Sc2c(Cl)cccc2Cl)cc1 (stereo not given) [butoconazole],0.0427
16,CCOC(=O)O[C@]1(C(=O)COC(=O)CC)CC[C@H]2[C@@H]3CCC4=CC(=O)C=C[C@]4(C)[C@H]3[C@@H](O)C[C@@]21C [prednicarbate],0.131
17,COc1ccc2c(c1OC)C(=O)O[C@@H]2[C@H]1c2c(cc3c(c2OC)OCO3)CCN1C [noscapine hydrochloride],0.205
18,CNC[C@H](O)c1ccc(O)c(O)c1 [adrenaline bitartrate],-0.533
19,O=C(O)CCCCCCCC(=O)O [azelaic acid],-0.144
20,CC(S)C(=O)NCC(=O)O (stereo not given) [tiopronin],-0.772
21,CCN(CC)C(C)CN1c2ccccc2Sc2ccccc21 (stereo not given) [ethopropazine hydrochloride],0.433
22,CC(=O)NS(=O)(=O)c1ccc(NC(=O)c2ccccc2C(=O)O)cc1 [phthalylsulfacetamide],-0.489
23,NC[C@H]1O[C@H](O[C@H]2[C@H](O)[C@@H](O[C@H]3O[C@H](CO)[C@@H](O)[C@H](N)[C@H]3O)[C@H](N)C[C@@H]2N)[C@H](N)[C@@H](O)[C@@H]1O [becanamycin sulfate],-0.0019
24,Oc1c(I)cc(Cl)c2cccnc12 [clioquinol],0.336
25,C[N+](C)(C)CCO [choline chloride],-0.436

# No new results follow: entries from further up.
row,SMILES,APOC3 transcript change (Z-score)
7,Nc1nc2ccc(OC(F)(F)F)cc2s1 [Riluzole],-0.481
8,CN(C)N=Nc1[nH]cnc1C(N)=O [dacarbazine],0.582
9,C=Cc1c(C)c2[n]3c1C=C1C(C)=C(CC)C4=[N+]1[Cu]31[n]3c(c(C)c(C(=O)O)c3=C(CC(=O)O)C3=[N+]1C(=C2)C(C)C3CCC(=O)O)=C4 (stereo not given) [chlorophyllide cu complex na salt],0.131
